Experimental data published in publication PMC9342898.
These are yes or no findings as the source states them, for the method shown.

Molecular target: tDab2, C-terminal truncation of disabled-2 (residues 649–770) (UniProt P98082)
Assay: SEC-MALS; 100 µl of 2 mg/ml protein on Superdex 200 (30 × 1 cm), 150 mM NaCl, 50 mM Tris.HCl pH 7.5, 1 mM DTT, room temperature; both purified

B1: tDab2, C-terminal truncation of disabled-2 (residues 649–770) (domain or fragment, UniProt P98082 649-770)
chain: KDVKEMFKDFQLRQPPAVPARKGEQTSSGTLSAFASYFNSKVGIPQENADHDDFDANQLLNKINEPPKPAPRQVSLPVTKSTDNAFENPFFKDSFGSSQASVASSQPVSSEMYRDPFGNPFA
- binding: no binding (tested: 2 mg/ml)
